Data from article PMC9789407.
These are yes or no findings as the source states them, for the method shown. In cells and extracts the contact can be indirect. Some entries that bind do so weakly or less than the wild type.

Protein sequences, listed by entry. Tags and fused reporters are not part of them. Lines headed by an entry give the natural chain unless they say otherwise; changes in a name come on top. Chains listed by the source or under a name are the forms on record and can include a tag or linker.
UniProt Q9BPZ7: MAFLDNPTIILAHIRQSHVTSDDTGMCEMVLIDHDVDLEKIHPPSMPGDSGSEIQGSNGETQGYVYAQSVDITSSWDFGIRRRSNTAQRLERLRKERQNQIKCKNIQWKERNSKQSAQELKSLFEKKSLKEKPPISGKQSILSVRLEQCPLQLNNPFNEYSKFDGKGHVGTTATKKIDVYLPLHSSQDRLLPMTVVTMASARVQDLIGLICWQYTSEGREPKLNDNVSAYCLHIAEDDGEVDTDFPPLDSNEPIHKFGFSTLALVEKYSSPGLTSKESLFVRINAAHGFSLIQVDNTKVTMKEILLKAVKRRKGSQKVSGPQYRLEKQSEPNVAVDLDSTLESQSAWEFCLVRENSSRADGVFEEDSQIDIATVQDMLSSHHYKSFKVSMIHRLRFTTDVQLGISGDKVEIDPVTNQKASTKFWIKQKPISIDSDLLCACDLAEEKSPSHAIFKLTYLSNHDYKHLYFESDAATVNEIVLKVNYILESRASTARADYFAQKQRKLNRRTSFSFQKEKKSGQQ
UniProt Q9WVC6: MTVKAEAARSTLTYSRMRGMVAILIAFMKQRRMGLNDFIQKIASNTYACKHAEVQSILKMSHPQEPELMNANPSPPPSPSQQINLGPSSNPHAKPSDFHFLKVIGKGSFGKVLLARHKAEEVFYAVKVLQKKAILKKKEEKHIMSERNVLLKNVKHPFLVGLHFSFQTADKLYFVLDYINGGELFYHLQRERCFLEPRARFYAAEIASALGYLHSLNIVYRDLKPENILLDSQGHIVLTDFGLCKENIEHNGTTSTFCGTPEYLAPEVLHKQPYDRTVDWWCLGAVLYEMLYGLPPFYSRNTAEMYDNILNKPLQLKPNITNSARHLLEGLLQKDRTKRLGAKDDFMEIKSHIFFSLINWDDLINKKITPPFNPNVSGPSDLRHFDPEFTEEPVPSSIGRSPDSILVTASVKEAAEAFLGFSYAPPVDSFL
Myc–WNK1 (1-491) (K233M) (Q9JIH7, form named): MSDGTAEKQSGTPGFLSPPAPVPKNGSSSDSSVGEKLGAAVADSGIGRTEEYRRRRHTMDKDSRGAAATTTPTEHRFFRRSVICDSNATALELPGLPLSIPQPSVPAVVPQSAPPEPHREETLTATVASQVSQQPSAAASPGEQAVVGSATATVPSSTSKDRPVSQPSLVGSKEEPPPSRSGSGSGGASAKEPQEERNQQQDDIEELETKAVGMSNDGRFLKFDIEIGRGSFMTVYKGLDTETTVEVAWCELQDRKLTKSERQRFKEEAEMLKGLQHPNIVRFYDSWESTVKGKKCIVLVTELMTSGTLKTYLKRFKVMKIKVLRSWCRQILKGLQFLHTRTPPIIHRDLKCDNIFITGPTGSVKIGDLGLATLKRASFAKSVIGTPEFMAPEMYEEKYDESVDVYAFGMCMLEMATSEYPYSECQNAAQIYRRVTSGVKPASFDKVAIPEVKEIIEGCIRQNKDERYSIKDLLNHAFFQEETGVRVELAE

Key:
SIN1–V5 = SIN1–V5 (UniProt Q9BPZ7); assay: co-IP; anti-V5 affinity gel IP of SIN1–V5 from transfected WNK1−/− SIN1−/− HEK-293T cells with add-back of WNK1 (Fig. S8C); 1% CHAPS buffer
Flag–SGK1 (WT) = Flag–SGK1 (WT) (UniProt Q9WVC6); assay: co-IP; anti-FLAG M2 affinity gel IP of Flag–SGK1 from WNK1−/− SIN1−/− HEK-293 cells transfected with Flag–SGK1, Myc–WNK1 (WT or K233M) and SIN1–V5; serum starved, 1 mM [K+] then 1 or 5 mM [K+] for 1 h; 1% CHAPS lysis buffer, overnight at 4°C; blots for V5 and Myc

Row | Substance | binding (SIN1–V5) | binding (Flag–SGK1 (WT))
1 | Flag–SGK1 (WT) (from UniProt Q9WVC6 1-431) (enzyme) | binds | 
2 | Myc–WNK1 (1-491) (K233M) (from UniProt Q9JIH7 1-491) (domain or fragment) |  | binds
